Reference: patent publication US11220671B2, “Methods for the maturation of cardiomyocytes on amniotic fluid cell-derived ECM, cellular constructs, and uses for cardiotoxicity and proarrhythmic screening of drug compounds” (STEMBIOSYS, INC., priority 2019, dated 2022)

Experiment: Composition of amniotic fluid cell-derived ECM by mass spectrometry (total spectra count)
Settings: for Total Spectra Count Matrix A: protein component found by mass spectrometry in amniotic fluid cell-derived ECM Matrix A (Example 1); for Total Spectra Count Matrix B: protein component found by mass spectrometry in amniotic fluid cell-derived ECM Matrix B (Example 1); for Total Spectra Count Matrix C: protein component found by mass spectrometry in amniotic fluid cell-derived ECM Matrix C (Example 1); for Total Spectra Count Matrix D: protein component found by mass spectrometry in amniotic fluid cell-derived ECM Matrix D (Example 1)

| Molecule | Total Spectra Count Matrix A | Total Spectra Count Matrix B | Total Spectra Count Matrix C | Total Spectra Count Matrix D |
| --- | --- | --- | --- | --- |
| Microtubule-associated protein 4 (protein, UniProt P27816 2-1152, looked up) Microtubule-associated …: ADLSLADALTEPSPDIEGEIKRDFIATLEAEAFDDVVGETVGKTDYIPLLDVDEKTGNSESKKKPCSETSQIEDTPSSKPTLLANGGHGVEGSDTTGSPTEFLEEKMAYQEYPNSQNWPEDTNFCFQPEQVVDPIQTDPFKMYHDDDLADLVFPSSATADTSIFAGQNDPLKDSYGMSPCNTAVVPQGWSVEALNSPHSESFVSPEAVAEPPQPTAVPLELAKEIEMASEERPPAQALEIMMGLKTTDMAPSKETEMALAKDMALATKTEVALAKDMESPTKLDVTLAKDMQPSMESDMALVKDMELPTEKEVALVKDVRWPTETDVSSAKNVVLPTETEVAPAKDVTLLKETERASPIKMDLAPSKDMGPPKENKKETERASPIKMDLAPSKDMGPPKENKIVPAKDLVLLSEIEVAQANDIISSTEISSAEKVALSSETEVALARDMTLPPETNVILTKDKALPLEAEVAPVKDMAQLPETEIAPAKDVAPSTVKEVGLLKDMSPLSETEMALGKDVTPPPETEVVLIKNVCLPPEMEVALTEDQVPALKTEAPLAKDGVLTLANNVTPAKDVPPLSETEATPVPIKDMEIAQTQKGISEDSHLESLQDVGQSAAPTFMISPETVTGTGKKCSLPAEEDSVLEKLGERKPCNSQPSELSSETSGIARPEEGRPVVSGTGNDITTPPNKELPPSPEKKTKPLATTQPAKTSTSKAKTQPTSLPKQPAPTTIGGLNKKPMSLASGLVPAAPPKRPAVASARPSILPSKDVKPKPIADAKAPEKRASPSKPASAPASRSGSKSTQTVAKTTTAAAVASTGPSSRSPSTLLPKKPTAIKTEGKPAEVKKMTAKSVPADLSRPKSTSTSSMKKTTTLSGTAPAAGVVPSRVKATPMPSRPSTTPFIDKKPTSAKPSSTTPRLSRLATNTSAPDLKNVRSKVGSTENIKHQPGGGRAKVEKKTEAAATTRKPESNAVTKTAGPIASAQKQPAGKVQIVSKKVSYSHIQSKCGSKDNIKHVPGGGNVQIQNKKVDISKVSSKCGSKANIKHKPGGGDVKIESQKLNFKEKAQAKVGSLDNVGHLPAGGAVKTEGGGSEAPLCPGPPAGEEPAISEAAPEAGAPTSASGLNGHPTLSGGGDQREAQTLDSQIQETSI | 35 | 73 | 8 | 26 |
| Ribosome-binding protein 1 (protein, UniProt Q9P2E9 1-1410, looked up) Ribosome-binding protein 1: MDIYDTQTLGVVVFGGFMVVSAIGIFLVSTFSMKETSYEEALANQRKEMAKTHHQKVEKKKKEKTVEKKGKTKKKEEKPNGKIPDHDPAPNVTVLLREPVRAPAVAVAPTPVQPPIIVAPVATVPAMPQEKLASSPKDKKKKEKKVAKVEPAVSSVVNSIQVLTSKAAILETAPKEVPMVVVPPVGAKGNTPATGTTQGKKAEGTQNQSKKAEGAPNQGRKAEGTPNQGKKTEGTPNQGKKAEGTPNQGKKAEGTPNQGKKAEGAQNQGKKVDTTPNQGKKVEGAPTQGRKAEGAQNQAKKVEGAQNQGKKAEGAQNQGKKGEGAQNQGKKAEGAQNQGKKAEGAQNQGKKAEGAQNQGKKAEGAQNQGKKAEGAQNQGKKAEGAQNQGKKVEGAQNQGKKAEGAQNQGKKAEGAQNQGKKAEGAQNQGKKAEGAQNQGKKAEGAQNQGKKAEGAQNQGKKAEGAQNQGKKVEGAQNQGKKAEGAQNQGKKAEGAQNQGKKAEGAQNQGQKGEGAQNQGKKTEGAQGKKAERSPNQGKKGEGAPIQGKKADSVANQGTKVEGITNQGKKAEGSPSEGKKAEGSPNQGKKADAAANQGKKTESASVQGRNTDVAQSPEAPKQEAPAKKKSGSKKKGEPGPPDADGPLYLPYKTLVSTVGSMVFNEGEAQRLIEILSEKAGIIQDTWHKATQKGDPVAILKRQLEEKEKLLATEQEDAAVAKSKLRELNKEMAAEKAKAAAGEAKVKKQLVAREQEITAVQARMQASYREHVKEVQQLQGKIRTLQEQLENGPNTQLARLQQENSILRDALNQATSQVESKQNAELAKLRQELSKVSKELVEKSEAVRQDEQQRKALEAKAAAFEKQVLQLQASHRESEEALQKRLDEVSRELCHTQSSHASLRADAEKAQEQQQQMAELHSKLQSSEAEVRSKCEELSGLHGQLQEARAENSQLTERIRSIEALLEAGQARDAQDVQASQAEADQQQTRLKELESQVSGLEKEAIELREAVEQQKVKNNDLREKNWKAMEALATAEQACKEKLLSLTQAKEESEKQLCLIEAQTMEALLALLPELSVLAQQNYTEWLQDLKEKGPTLLKHPPAPAEPSSDLASKLREAEETQSTLQAECDQYRSILAETEGMLRDLQKSVEEEEQVWRAKVGAAEEELQKSRVTVKHLEEIVEKLKGELESSDQVREHTSHLEAELEKHMAAASAECQNYAKEVAGLRQLLLESQSQLDAAKSEAQKQSDELALVRQQLSEMKSHVEDGDIAGAPASSPEAPPAEQDPVQLKTQLEWTEAILEDEQTQRQKLTAEFEEAQTSACRLQEELEKLRTAGPLESSETEEASQLKERLEKEKKLTSDLGRAATRLQELLKTTQEQLAREKDTVKKLQEQLEKAEDGSSSKEGTSV | 34 | 80 | 17 | 22 |
| Keratin, type I cytoskeletal 9 (protein, UniProt P35527 1-623, looked up) Keratin, type I cytoskeletal 9: MSCRQFSSSYLSRSGGGGGGGLGSGGSIRSSYSRFSSSGGGGGGGRFSSSSGYGGGSSRVCGRGGGGSFGYSYGGGSGGGFSASSLGGGFGGGSRGFGGASGGGYSSSGGFGGGFGGGSGGGFGGGYGSGFGGFGGFGGGAGGGDGGILTANEKSTMQELNSRLASYLDKVQALEEANNDLENKIQDWYDKKGPAAIQKNYSPYYNTIDDLKDQIVDLTVGNNKTLLDIDNTRMTLDDFRIKFEMEQNLRQGVDADINGLRQVLDNLTMEKSDLEMQYETLQEELMALKKNHKEEMSQLTGQNSGDVNVEINVAPGKDLTKTLNDMRQEYEQLIAKNRKDIENQYETQITQIEHEVSSSGQEVQSSAKEVTQLRHGVQELEIELQSQLSKKAALEKSLEDTKNRYCGQLQMIQEQISNLEAQITDVRQEIECQNQEYSLLLSIKMRLEKEIETYHNLLEGGQEDFESSGAGKIGLGGRGGSGGSYGRGSRGGSGGSYGGGGSGGGYGGGSGSRGGSGGSYGGGSGSGGGSGGGYGGGSGGGHSGGSGGGHSGGSGGNYGGGSGSGGGSGGGYGGGSGSRGGSGGSHGGGSGFGGESGGSYGGGEEASGSGGGYGGGSGKSSHS | 31 | 643 | 61 | 50 |
| Heterogeneous nuclear ribonucleoprotein M (protein, UniProt P52272 2-730, looked up) Heterogeneous nuclear …: AAGVEAAAEVAATEIKMEEESGAPGVPSGNGAPGPKGEGERPAQNEKRKEKNIKRGGNRFEPYANPTKRYRAFITNIPFDVKWQSLKDLVKEKVGEVTYVELLMDAEGKSRGCAVVEFKMEESMKKAAEVLNKHSLSGRPLKVKEDPDGEHARRAMQKVMATTGGMGMGPGGPGMITIPPSILNNPNIPNEIIHALQAGRLGSTVFVANLDYKVGWKKLKEVFSMAGVVVRADILEDKDGKSRGIGTVTFEQSIEAVQAISMFNGQLLFDRPMHVKMDERALPKGDFFPPERPQQLPHGLGGIGMGLGPGGQPIDANHLNKGIGMGNIGPAGMGMEGIGFGINKMGGMEGPFGGGMENMGRFGSGMNMGRINEILSNALKRGEIIAKQGGGGGGGSVPGIERMGPGIDRLGGAGMERMGAGLGHGMDRVGSEIERMGLVMDRMGSVERMGSGIERMGPLGLDHMASSIERMGQTMERIGSGVERMGAGMGFGLERMAAPIDRVGQTIERMGSGVERMGPAIERMGLSMERMVPAGMGAGLERMGPVMDRMATGLERMGANNLERMGLERMGANSLERMGLERMGANSLERMGPAMGPALGAGIERMGLAMGGGGGASFDRAIEMERGNFGGSFAGSFGGAGGHAPGVARKACQIFVRNLPFDFTWKMLKDKFNECGHVLYADIKMENGKSKGCGVVKFESPEVAERACRMMNGMKLSGREIDVRIDRNA | 30 | 114 | 12 | 30 |
| TREMBL: Q0IIK2 (Bos taurus) Transferrin (protein, UniProt Q29443 20-704, looked up) Serotransferrin: DPERTVRWCTISTHEANKCASFRENVLRILESGPFVSCVKKTSHMDCIKAISNNEADAVTLDGGLVYEAGLKPNNLKPVVAEFHGTKDNPQTHYYAVAVVKKDTDFKLNELRGKKSCHTGLGRSAGWNIPMAKLYKELPDPQESIQRAAANFFSASCVPCADQSSFPKLCQLCAGKGTDKCACSNHEPYFGYSGAFKCLMEGAGDVAFVKHSTVFDNLPNPEDRKNYELLCGDNTRKSVDDYQECYLAMVPSHAVVARTVGGKEDVIWELLNHAQEHFGKDKPDNFQLFQSPHGKDLLFKDSADGFLKIPSKMDFELYLGYEYVTALQNLRESKPPDSSKDECMVKWCAIGHQERTKCDRWSGFSGGAIECETAENTEECIAKIMKGEADAMSLDGGYLYIAGKCGLVPVLAENYKTEGESCKNTPEKGYLAVAVVKTSDANINWNNLKDKKSCHTAVDRTAGWNIPMGLLYSKINNCKFDEFFSAGCAPGSPRNSSLCALCIGSEKGTGKECVPNSNERYYGYTGAFRCLVEKGDVAFVKDQTVIQNTDGNNNEAWAKNLKKENFEVLCKDGTRKPVTDAENCHLARGPNHAVVSRKDKATCVEKILNKQQDDFGKSVTDCTSNFCLFQSNSKDLLFRDDTKCLASIAKKTYDSYLGDDYVRAMTNLRQCSTSKLLEACTFHKP | 29 | 15 | 2 | 16 |
| T-complex protein 1 subunit delta (protein, UniProt P50991 2-539, looked up) T-complex protein 1 subunit …: PENVAPRSGATAGAAGGRGKGAYQDRDKPAQIRFSNISAAKAVADAIRTSLGPKGMDKMIQDGKGDVTITNDGATILKQMQVLHPAARMLVELSKAQDIEAGDGTTSVVIIAGSLLDSCTKLLQKGIHPTIISESFQKALEKGIEILTDMSRPVELSDRETLLNSATTSLNSKVVSQYSSLLSPMSVNAVMKVIDPATATSVDLRDIKIVKKLGGTIDDCELVEGLVLTQKVSNSGITRVEKAKIGLIQFCLSAPKTDMDNQIVVSDYAQMDRVLREERAYILNLVKQIKKTGCNVLLIQKSILRDALSDLALHFLNKMKIMVIKDIEREDIEFICKTIGTKPVAHIDQFTADMLGSAELAEEVNLNGSGKLLKITGCASPGKTVTIVVRGSNKLVIEEAERSIHDALCVIRCLVKKRALIAGGGAPEIELALRLTEYSRTLSGMESYCVRAFADAMEVIPSTLAENAGLNPISTVTELRNRHAQGEKTAGINVRKGGISNILEELVVQPLLVSVSALTLATETVRSILKIDDVVNTR | 27 | 73 | 19 | 26 |
